Results are given in words; binding and its absence hold for the method and conditions named. In cells and extracts the contact can be indirect. Binding calls can cover weak binding; strength is not graded here.
Target: Morgue:3xFLAG (Drosophila) (UniProt Q9Y165)
Test: co-IP; lysate of whole adult flies on M2 anti-FLAG resin; anti-SkpA and anti-ubiquitin Western blots of the eluate

Chains of the proteins cited; added tags and fusions are not shown. Lines headed by an entry give the natural chain unless they say otherwise; changes in a name come on top.
UniProt Q9Y165: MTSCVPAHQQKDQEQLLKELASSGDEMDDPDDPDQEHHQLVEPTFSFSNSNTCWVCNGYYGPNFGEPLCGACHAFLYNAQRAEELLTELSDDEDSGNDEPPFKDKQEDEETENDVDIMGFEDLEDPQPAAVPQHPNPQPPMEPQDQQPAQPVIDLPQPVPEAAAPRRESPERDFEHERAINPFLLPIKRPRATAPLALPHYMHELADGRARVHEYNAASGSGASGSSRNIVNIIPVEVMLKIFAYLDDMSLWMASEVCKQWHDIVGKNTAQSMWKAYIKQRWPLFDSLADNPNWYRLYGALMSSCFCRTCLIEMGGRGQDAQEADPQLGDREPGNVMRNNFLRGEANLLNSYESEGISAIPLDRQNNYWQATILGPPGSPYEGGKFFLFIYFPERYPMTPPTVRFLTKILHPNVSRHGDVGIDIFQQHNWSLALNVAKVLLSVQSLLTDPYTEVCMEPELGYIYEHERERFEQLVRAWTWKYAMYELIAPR
UniProt O77430: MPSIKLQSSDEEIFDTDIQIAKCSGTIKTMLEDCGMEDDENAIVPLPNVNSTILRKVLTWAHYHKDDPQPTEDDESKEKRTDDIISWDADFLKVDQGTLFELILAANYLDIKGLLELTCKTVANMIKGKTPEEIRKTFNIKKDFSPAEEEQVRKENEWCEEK

binding: binds
Substance: SkpA (from UniProt O77430 1-162)

Reference: publication PMC3787007
